# Laboratory results: PubChem BioAssay AID504774 (Drosophila RNAi Screening Center, 2011)
# Purpose: 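Knock-downs that shift viability of MMS-exposed cells relative to untreated ones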 (primary screen)
# Cells: Drosophila Kc167 cells
# Reagents: long dsRNA against Drosophila genes, about 0.25 µg dsRNA per well
# Timing: about 6 days: 3 days knock-down, then 3 days with or without MMS
# Treatment: methyl methanesulphonate 0.004% (w/v) for 3 days after knock-down
# Measured: 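Viability in wells given MMS, read as ATP luminescence, normalised by quantiles plate by plate and averaged across replicates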
# Reading the numbers: mean viability with MMS and viability with MMS: higher = more surviving cells after MMS
# The deposit covers about 23,000 reagents; shown is a random part of those with a known target gene and a result. 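Values are quantile-normalised luminescence on an arbitrary scale; higher means more cells surviving MMS.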 The numbers tell different reagents against one gene apart. A plus sign joins genes that one reagent is predicted to hit.
gene,reagent,mean viability with MMS,"viability with MMS, replicate 1","viability with MMS, replicate 2"
CG10165,1,3.82e6,4.07e6,4.60e6
CG7685,1,3.37e6,3.74e6,3.95e6
CR30409,1,3.49e6,4.00e6,3.93e6
Pgant9,1,3.48e6,3.86e6,4.05e6
Pgant9,2,3.54e6,3.99e6,4.03e6
Pgant9,3,3.60e6,4.22e6,3.93e6
Pgant9,4,3.43e6,3.90e6,3.85e6
Pgant9,5,3.65e6,4.23e6,4.02e6
Pgant9,6,3.56e6,3.98e6,4.08e6
Pgant9,7,3.58e6,4.07e6,4.06e6
Pgant9,8,3.69e6,4.09e6,4.19e6
opa,1,3.46e6,3.99e6,3.84e6
opa,2,3.22e6,3.76e6,3.85e6
opa,3,3.45e6,3.86e6,3.99e6
Klp31E,1,3.61e6,4.36e6,3.85e6
dyl,1,3.55e6,4.11e6,3.95e6
dyl,2,3.35e6,3.82e6,3.81e6
CG15576,1,3.56e6,4.00e6,4.10e6
CG1271,1,3.50e6,3.93e6,4.01e6
CG6028,1,3.45e6,3.91e6,3.92e6
CG8097,1,3.55e6,4.03e6,4.03e6
CG10000,1,3.69e6,4.19e6,4.15e6
Taf4,1,3.20e6,3.62e6,3.67e6
Grl36a,1,3.63e6,4.07e6,4.15e6
BBS9,1,3.52e6,3.93e6,4.05e6
Ip259,1,3.33e6,3.86e6,3.62e6
Ziz,1,3.43e6,3.95e6,3.83e6
Ziz,2,3.24e6,3.54e6,3.64e6
pncr003:2L (retired record),1,3.39e6,3.82e6,3.96e6
CG32037,1,3.76e6,4.17e6,4.25e6
CG9004,1,3.48e6,3.96e6,3.95e6
Toll-7,1,3.63e6,4.08e6,4.08e6
Tom7,1,3.73e6,4.29e6,4.17e6
Tom7,2,3.73e6,4.11e6,4.20e6
CG1409,1,3.23e6,3.51e6,3.75e6
CLS,1,3.80e6,4.23e6,4.37e6
CG14408,1,3.66e6,4.04e6,4.28e6
CG43127,1,3.81e6,4.10e6,4.34e6
CkIIalpha-i3,1,3.16e6,3.70e6,3.62e6
CG31627,1,3.63e6,4.07e6,4.10e6

Reformatted: entries from further up
{"gene":"CG7685","reagent":1,"mean viability with MMS":3.37e6,"viability with MMS, replicate 1":3.74e6,"viability with MMS, replicate 2":3.95e6}
{"gene":"CR30409","reagent":1,"mean viability with MMS":3.49e6,"viability with MMS, replicate 1":4.00e6,"viability with MMS, replicate 2":3.93e6}
{"gene":"Pgant9","reagent":1,"mean viability with MMS":3.48e6,"viability with MMS, replicate 1":3.86e6,"viability with MMS, replicate 2":4.05e6}
{"gene":"Pgant9","reagent":2,"mean viability with MMS":3.54e6,"viability with MMS, replicate 1":3.99e6,"viability with MMS, replicate 2":4.03e6}
{"gene":"Pgant9","reagent":3,"mean viability with MMS":3.60e6,"viability with MMS, replicate 1":4.22e6,"viability with MMS, replicate 2":3.93e6}
{"gene":"Pgant9","reagent":4,"mean viability with MMS":3.43e6,"viability with MMS, replicate 1":3.90e6,"viability with MMS, replicate 2":3.85e6}
{"gene":"Pgant9","reagent":5,"mean viability with MMS":3.65e6,"viability with MMS, replicate 1":4.23e6,"viability with MMS, replicate 2":4.02e6}
{"gene":"Pgant9","reagent":6,"mean viability with MMS":3.56e6,"viability with MMS, replicate 1":3.98e6,"viability with MMS, replicate 2":4.08e6}
{"gene":"Pgant9","reagent":7,"mean viability with MMS":3.58e6,"viability with MMS, replicate 1":4.07e6,"viability with MMS, replicate 2":4.06e6}
{"gene":"Pgant9","reagent":8,"mean viability with MMS":3.69e6,"viability with MMS, replicate 1":4.09e6,"viability with MMS, replicate 2":4.19e6}
{"gene":"opa","reagent":1,"mean viability with MMS":3.46e6,"viability with MMS, replicate 1":3.99e6,"viability with MMS, replicate 2":3.84e6}

Additional reagents:
gene,reagent,mean viability with MMS,"viability with MMS, replicate 1","viability with MMS, replicate 2"
rpk,1,3.50e6,4.00e6,3.94e6
rpk,2,3.43e6,3.98e6,3.84e6
sc,1,3.46e6,3.91e6,3.93e6
snoRNA:Me28S-A982b + Uhg4 + snoRNA:Me28S-G3255a + 1 more,1,3.67e6,4.25e6,4.08e6
ste24c + CG30461,1,3.80e6,4.71e6,3.98e6
ste24c + CG30461,2,3.74e6,4.11e6,4.32e6
CG12231,1,3.49e6,3.97e6,3.97e6
Spn53F,1,3.57e6,4.01e6,4.10e6
ovo,1,3.43e6,3.99e6,3.93e6
ovo,2,3.57e6,3.97e6,4.15e6
tbrd-3,1,3.40e6,3.78e6,3.87e6
Menl-2 + Menl-1,1,3.93e6,4.32e6,4.32e6
Menl-2 + Menl-1,2,3.66e6,4.07e6,4.20e6
sals,1,3.53e6,3.94e6,4.06e6
sals,2,3.49e6,3.96e6,3.99e6
mRpL11,1,3.64e6,4.09e6,4.20e6
CG2861,1,3.63e6,4.24e6,4.00e6
CG32121,1,3.48e6,3.92e6,4.00e6
Snmp2,1,3.58e6,4.09e6,4.05e6
Snmp2,2,3.49e6,4.08e6,3.85e6
CG7607,1,3.62e6,4.07e6,4.08e6
CG12910,1,3.50e6,4.00e6,3.91e6
Kah,1,3.59e6,3.92e6,4.21e6
Kah,2,3.59e6,4.06e6,4.05e6
loco,1,3.73e6,4.21e6,4.23e6
loco,2,3.48e6,3.94e6,3.94e6
Prosalpha4T1,1,3.49e6,3.87e6,4.06e6
cag,1,3.40e6,3.90e6,3.84e6
